Library screening results

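Viability assay of Plasmodium falciparum sporozoites; the read-out is not stated. The concentration is filed as 10 mM, unlikely as a test dose, so the dose is not known. Direction is inferred from retests: higher values go with lower viability. Strong results were mostly tested again. Size under these conditions: about 34,000 compounds, about 280 of them at 50% or above in at least one test.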

The filed quantity is “Percent Effect” (%). The controls that fix the scale are not given in the record; negative values are as filed. Compounds were drawn at random from those tested, without regard to their results. Two or more numbers in one place are separate tests of the same structure; such repeats can differ widely.

structure,percent effect
CN(C)c1cc(C(=O)N2CCN(c3nccs3)CC2)ccn1,2.117
CC1CN(Cc2ccccc2)CCCN1CCCS(C)(=O)=O (centres unmarked),-9.434
Cc1noc2ncc(C(=O)NCC3CCOC3)cc12 (centres unmarked),1.484
CCCNC(=O)COc1ccc(C)cn1,-11.13
Cc1nc(CN2CCC3(C2)CN(C(=O)c2conc2C)C3)cs1,2.802
Cc1ccc(S(=O)(=O)N2CCC(c3n[nH]cc3C)C2)cc1 (centres unmarked),7.472
COCCN1CCCC(Cc2ccc(N3CCOCC3)nn2)C1 (centres unmarked),9.395
O=C(NC1CCCC1)N1CCCCC1c1nc(C2CC2)no1 (centres unmarked),-5.403
O=C(CCN1CCCC1c1cccs1)N1CCc2sccc2C1 (centres unmarked),-8.16
Cc1ccc(N2CCC(Nc3ccc4nnc(C)n4n3)CC2)nc1,-2.632
COc1ccc(CN(C)[C@@H]2COC[C@H]2c2ccc(F)cc2)cc1.O=C(O)CC(O)(CC(=O)O)C(=O)O,-7.03
COc1ccc(OCCCN2CCOC(Cn3cccn3)C2)cc1 (centres unmarked),-13.37
CCSc1ccc(C(=O)Nc2c(C)nn(C(C)C)c2C)cn1,-8.326
O=C(CCN1CCCO1)NC1CCCN(CC2CCCCC2)C1 (centres unmarked),-8.154
Fc1cccc(CN2CCC3(CCCN3c3ncccn3)CC2)c1.O=C(O)C(F)(F)F,11.61
[H][C@@]12CS(=O)(=O)C[C@]1([H])N(Cc1cccnc1)CCN2CCOC,7.166
O=C(NCCC1=CCCCC1)NC1CCCc2c1cnn2CCO (centres unmarked),-15.52 & -8.333 & -13.32
CC(C)N(Cc1ccccc1)C(=O)c1cc(C2CCCN2C)ccn1 (centres unmarked),11.83
CCN1CCN(S(=O)(=O)c2cc(Cl)c(Cl)cc2C)CC1,-1.963
[H][C@@]12CCN(C(=O)COC)C[C@@]1([H])O[C@@H](C)C2,0.1153
CCNC(=O)NC(=O)CNC1(c2noc(C)n2)CCCCC1,-5.524
COCC1CN(C(=O)c2ccoc2C)Cc2nccn2C1 (centres unmarked),3.576
O=C(CCCc1ccccn1)N1CCC(n2cccc2)CC1,50.17 & -42.15 & -34.22
Cc1cnn(CC2CCCN2C(=O)Cc2n[nH]c3ccccc23)c1 (centres unmarked),3.865
CCN1CCN(C2CCN(Cc3nnc(C(C)(C)C)o3)CC2)C1=O,-0.6936
COc1ccc2c(c1)CC(C1CCOCC1)N(C(=O)c1cnccn1)C2 (centres unmarked),5.762
O=C(CN1CCCC1)N1CCCC1c1nc(O)cc(-c2ccccn2)n1 (centres unmarked),2.665
CC(C)NC(=O)C1(Cc2ccccc2-c2cncnc2)CCCNC1 (centres unmarked),7.828
CO[C@H]1CCN(S(=O)(=O)c2cn(C)cn2)[C@H]1Cc1cccnc1.O=C(O)C(F)(F)F.O=C(O)C(F)(F)F,0.3247
CC(=O)NC(C)(C)C(=O)Nc1ncc(Cc2ccc(C)c(F)c2)s1,-17.42
CC(C)(C)c1noc(CNc2ccccc2N2CCC(O)CC2)n1,2.258 & 3.375 & -11.77
CC(O)CNC(=O)NCc1ccc(N2CCNC(=O)C2)cc1 (centres unmarked),-4.579
Cc1nc(CN(C)C2CCN(Cc3nc4ccccc4s3)C2)no1 (centres unmarked),17.36
O=C(CN1CCCC(Cn2cncn2)C1)NCCCc1ccccc1 (centres unmarked),-4.338
C=C(C)COCCNC(=O)Nc1cccc(Cn2nc(C)nc2C)c1,1.891
CS(=O)(=O)NCC(=O)NC(Cc1ccccc1)C1CCCC1 (centres unmarked),-15.21
CCOC(=O)C1CCN(C(=O)c2cnn(-c3ccc(C)cc3)c2N)CC1,-31.22
Cc1nc(CN2CCc3ncnc(C4CC4)c3CC2)cs1.O=C(O)C(F)(F)F,2.525
COc1ccc(CCNC(=O)NC2CCCC2)cc1OC,-0.3529
CN1CCN(CC2(O)CCN(C(=O)CCc3ccccc3F)C2)CC1 (centres unmarked),-4.014
Cc1noc(C)c1-c1cccc(CC2CCN(C(=O)CCC(=O)O)C2)n1 (centres unmarked),-11.49
COCCN1CCOCC12CCN(C(=O)c1c[nH]c3ccccc13)CC2,7.967
Cc1noc(C)c1C1CCCN1C(=O)CN1CC2(CCNCC2)OC1=O (centres unmarked),-6.235
O=C(O)C(F)(F)F.[H][C@@]12CCN(CCOCc3ccccc3)[C@]1([H])CC[C@@H](C(=O)N1CCCC1)O2,15.76
CCc1c(C(=O)O)nnn1-c1cc(C)cc(C)c1,-20.05
Cc1cc(C)c(CNC(=O)N2CCN(c3ccncc3)CC2)c(=O)[nH]1,2.612
COc1cccc([S+]([O-])CC(=O)NCc2cc(F)cc(F)c2)c1 (centres unmarked),-8.546
Cc1ccc(CN(Cc2ccncc2)C2CC(C)(C)NC(C)(C)C2)o1.O=C(O)CC(O)(CC(=O)O)C(=O)O,7.795
Cc1cn2c(=O)c(-c3ccnc(N4CCC[C@@H]4CO)n3)cnc2s1,2.117
CCc1nc(C2CCCN(C(=O)c3c(C)noc3C)C2)no1 (centres unmarked),-11.96 & 6.633 & -18.41
COc1ccc(CN2CCc3nc4ccsc4c(=O)n3CC2)c(C)c1C,-7.186
[H][C@]12CC[C@](O)(CC1)C(COC)N2C(=O)N1CCOCC1 (some centres unmarked),-12.73
O=C(O)C(F)(F)F.[H][C@@]12CN(Cc3nccs3)C[C@]1([H])C(=O)N(c1cncnc1)C2,-8.442
Cc1csc(C2(NC(=O)CCNC(=O)C(C)(C)C)CCCC2)n1,-17.6
O=C(COc1coc(CN2CCCCC2)cc1=O)c1ccc(Cl)cc1,-6.63
N#Cc1ccc(S(=O)(=O)NCCn2ccnc2)cc1Cl,3.429
Cc1ccc(C)c(S(=O)(=O)CCN2CCc3c(ncn3C)C2)c1,4.601
CC(C)(N)C(=O)N1CCC(c2nccnc2Oc2ccccc2F)CC1,7.699
Cc1csc(NC(=O)c2cnc(C3CCCN(C)C3)cn2)n1 (centres unmarked),50.33 & 85.32 & 71.26
O=C(O)C(F)(F)F.[H][C@@]12C[C@H](C(=O)NCCN(C)C)[C@@]([H])(CN(C(=O)NCc3ccccc3)C1)O2,-11.68
CC(O)CN1CCN(C(=O)CCOc2ccccc2F)CC1 (centres unmarked),8.088 & -8.879 & -8.774
CC(Cn1cccn1)n1cnc2cccc(F)c2c1=O (centres unmarked),-11.54
[H][C@]12CCCN(S(=O)(=O)c3ccc(OC)c(F)c3)[C@@]1([H])CN(C(=O)C1CC1)C2,5.05
CC1CCCN(Cc2coc(-c3cccc(F)c3)n2)C1 (centres unmarked),-3.271 & 2.426 & -18.63
COc1ccc(C(=O)CCc2nc(C3CC3)no2)cc1F,-35.91 & -32.88
CC(COc1ccccc1)NCc1nc(-c2cccnc2)no1 (centres unmarked),-8.063
CCC(CO)N(Cc1ccccn1)C(=O)c1ccc2c(c1)CCO2 (centres unmarked),-1.931
COCCCn1ccc(NC2CCSCC2)n1,-16.36
COc1ccccc1-n1cc(C(=O)NCCCn2nc(C)nc2C)cn1,3.022
Cc1cn2c(n1)CCC(NC(=O)CCC(F)(F)F)C2 (centres unmarked),-4.482
Cc1cccnc1Nc1nccc(C2CN(CC(N)=O)C2)n1,4.213 & -1.121 & -1.613
Cc1ccsc1CN(CCCO)Cc1nc2ccccc2[nH]1,-2.337
Cl.O=C(NCC(F)F)c1cnc(C2CCCN2)cn1 (centres unmarked),6.016
CC(NCC(F)(F)F)c1ccc(S(C)(=O)=O)c(F)c1 (centres unmarked),1.434
CSCC(=O)NC1CCN(C(C)c2ccccc2)CC1 (centres unmarked),-11.53
COCC1c2nnn(C)c2CCN1C(=O)COc1ccccc1OC (centres unmarked),5.079
O=C(CCOc1cccc(F)c1)N1CCCC1Cn1cccn1 (centres unmarked),2.935
CCCC(C)C(=O)N1CCC(n2cccc2C(=O)OC)CC1 (centres unmarked),-15.11

6 of the entries, repeated:

Cc1cn2c(n1)CCC(NC(=O)CCC(F)(F)F)C2 (centres unmarked) read -4.482%.
COc1ccc2c(c1)CC(C1CCOCC1)N(C(=O)c1cnccn1)C2 (centres unmarked) read 5.762%.
Cc1nc(CN2CCc3ncnc(C4CC4)c3CC2)cs1.O=C(O)C(F)(F)F read 2.525%.
Cc1csc(C2(NC(=O)CCNC(=O)C(C)(C)C)CCCC2)n1 read -17.6%.
CO[C@H]1CCN(S(=O)(=O)c2cn(C)cn2)[C@H]1Cc1cccnc1.O=C(O)C(F)(F)F.O=C(O)C(F)(F)F read 0.3247%.
CCSc1ccc(C(=O)Nc2c(C)nn(C(C)C)c2C)cn1 read -8.326%.

Data taken from ChEMBL document CHEMBL3988442, “University of Dundee, Small-Polar-MMV Screening Library” (2021).